Here are results for 1 molecule from US5914236A, “PCT-65 serotonin receptor” (United States of America, priority 1995, dated 1999).

By UniProt entry, the sequences of proteins in these tests, tags left out. Residues count along the entry.
UniProt P32305, 45-448: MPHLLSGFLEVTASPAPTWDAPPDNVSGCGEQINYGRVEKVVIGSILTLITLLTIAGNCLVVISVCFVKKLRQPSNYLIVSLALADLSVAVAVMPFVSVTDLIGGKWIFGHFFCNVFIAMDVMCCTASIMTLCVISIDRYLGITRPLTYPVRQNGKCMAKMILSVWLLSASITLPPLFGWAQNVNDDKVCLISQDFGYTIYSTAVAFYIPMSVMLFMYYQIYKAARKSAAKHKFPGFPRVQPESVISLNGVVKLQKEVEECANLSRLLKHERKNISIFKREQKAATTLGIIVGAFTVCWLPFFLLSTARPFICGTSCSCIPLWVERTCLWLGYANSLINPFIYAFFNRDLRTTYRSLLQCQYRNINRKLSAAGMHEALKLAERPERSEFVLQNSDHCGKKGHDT

The target of the assay is T1, PCT-65 receptor (Rattus norvegicus, UniProt P32305).
T1 construct: expressed in transfected cells; host or cells: COS-7 cells (transient, calcium phosphate, pSRα-65)
As to the kind of experiment: Competition binding to PCT-65 receptor (radioligand not specified). To be noted: expressed in mammalian cells (COS-7).

Each structure is given as a SMILES string.

Regarding `CCN(CC)C(=O)N[C@H]1C=C2c3cccc4[nH]cc(c34)C[C@H]2N(C)C1` [Lisuride], the “affinity for PCT-65 (in words)” value is reported as “relatively high affinity”.
